Values of other authors, collected in US10357460B2, “Particulate comprising a calcium-containing compound and a sugar alcohol” (Takeda Nycomed AS, priority 2004, dated 2019).

Settings: compared to sucrose; cited from earlier work

Compound: OC[C@@H](O)[C@@H](O)[C@H](O)[C@@H](O)CO [sorbitol, Sorbitol]
- sweetening effect: 0.55

Compound: OC[C@@H](O)[C@@H](O[C@H]1O[C@H](CO)[C@@H](O)[C@H](O)[C@H]1O)[C@H](O)[C@@H](O)CO [maltitol, Maltitol]
- sweetening effect: < 1

Compound: Isomalt
- sweetening effect: < 0.5

Compound: OC[C@@H](O)[C@H](O)[C@@H](O)CO [xylitol, Xylitol]
- sweetening effect: 1
